Data: the supplement of paper PMC6411743
± gives the standard deviation of the averaged measurements. The list shows a part of the results, in another mix than the full data.

How the values were obtained:
Experiment in all cases: NP40-soluble protein abundance relative to vehicle (solubility fold change) (ratio); higher = more soluble protein in presence of ATP
CDKAL1 = target: T1, CDKAL1 (UniProt Q5VV42)
T1 sequence (whole entry): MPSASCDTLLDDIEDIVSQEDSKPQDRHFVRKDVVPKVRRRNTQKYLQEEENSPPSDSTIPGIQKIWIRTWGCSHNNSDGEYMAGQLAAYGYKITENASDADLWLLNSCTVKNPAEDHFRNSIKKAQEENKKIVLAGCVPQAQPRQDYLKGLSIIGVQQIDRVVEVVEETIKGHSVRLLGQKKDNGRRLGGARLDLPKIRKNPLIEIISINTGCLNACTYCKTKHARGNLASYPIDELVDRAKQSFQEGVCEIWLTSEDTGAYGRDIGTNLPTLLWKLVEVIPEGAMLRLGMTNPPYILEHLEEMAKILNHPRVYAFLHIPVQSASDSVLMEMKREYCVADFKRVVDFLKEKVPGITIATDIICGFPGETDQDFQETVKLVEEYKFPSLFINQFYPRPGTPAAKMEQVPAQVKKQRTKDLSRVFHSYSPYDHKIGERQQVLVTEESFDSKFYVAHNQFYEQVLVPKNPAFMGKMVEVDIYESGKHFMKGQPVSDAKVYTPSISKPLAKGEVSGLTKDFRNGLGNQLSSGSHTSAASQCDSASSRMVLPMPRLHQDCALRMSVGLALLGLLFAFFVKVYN
How it was run: (§1)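 Jurkat crude lysate (Dounce-homogenised) was treated with eight concentrations from 0.1 to 10 mM for 10 min at room temperature, then 3 min at 37 °C. It was solubilised with 0.8% NP40 and benzonase (60 min, 4 °C) and ultracentrifuged, and the supernatant was TMT-labelled for LC-MS/MS. Intensities were vsn-normalised, and the value is the fold change against the NP40-processed vehicle per replicate, from three independent experiments.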

DDX59 = target: T2, DDX59 (UniProt Q5T1V6)
T2 sequence (whole entry): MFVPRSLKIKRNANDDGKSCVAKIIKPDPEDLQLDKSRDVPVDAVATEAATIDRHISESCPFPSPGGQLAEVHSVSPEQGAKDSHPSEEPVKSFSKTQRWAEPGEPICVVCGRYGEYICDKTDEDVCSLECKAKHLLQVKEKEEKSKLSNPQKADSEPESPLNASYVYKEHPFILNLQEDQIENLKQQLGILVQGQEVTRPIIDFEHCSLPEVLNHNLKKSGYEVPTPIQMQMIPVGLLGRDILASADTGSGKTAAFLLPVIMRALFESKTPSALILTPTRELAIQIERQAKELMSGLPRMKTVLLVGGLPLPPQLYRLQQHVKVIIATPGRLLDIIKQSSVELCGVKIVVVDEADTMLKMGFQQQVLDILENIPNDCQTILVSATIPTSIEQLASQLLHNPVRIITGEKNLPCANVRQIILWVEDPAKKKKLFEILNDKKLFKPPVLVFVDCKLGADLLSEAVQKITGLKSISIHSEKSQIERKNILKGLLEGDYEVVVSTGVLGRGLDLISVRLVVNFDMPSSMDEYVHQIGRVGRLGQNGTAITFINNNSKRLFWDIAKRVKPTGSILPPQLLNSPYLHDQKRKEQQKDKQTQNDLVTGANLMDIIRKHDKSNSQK
How it was run: as §1

PRPF38B = target: T3, PRPF38B (UniProt Q5VTL8)
T3 sequence (whole entry): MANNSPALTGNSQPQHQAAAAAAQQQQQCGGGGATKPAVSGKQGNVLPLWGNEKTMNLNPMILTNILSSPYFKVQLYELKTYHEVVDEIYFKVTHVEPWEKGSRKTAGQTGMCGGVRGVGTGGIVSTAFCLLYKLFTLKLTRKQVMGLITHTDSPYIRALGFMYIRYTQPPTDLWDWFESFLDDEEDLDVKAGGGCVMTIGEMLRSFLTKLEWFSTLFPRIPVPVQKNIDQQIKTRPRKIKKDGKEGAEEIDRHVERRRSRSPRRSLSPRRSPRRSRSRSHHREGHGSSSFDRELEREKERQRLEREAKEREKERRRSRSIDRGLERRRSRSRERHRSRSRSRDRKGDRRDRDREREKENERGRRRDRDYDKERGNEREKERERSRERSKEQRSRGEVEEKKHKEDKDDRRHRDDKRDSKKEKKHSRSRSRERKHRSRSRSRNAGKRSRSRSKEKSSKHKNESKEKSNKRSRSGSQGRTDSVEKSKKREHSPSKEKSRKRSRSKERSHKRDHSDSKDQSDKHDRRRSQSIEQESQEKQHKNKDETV
How it was run: as §1

[1] = target: T4, Q5SZG2 and related entries (UniProt Q8TAK5)
T4 sequence (whole entry): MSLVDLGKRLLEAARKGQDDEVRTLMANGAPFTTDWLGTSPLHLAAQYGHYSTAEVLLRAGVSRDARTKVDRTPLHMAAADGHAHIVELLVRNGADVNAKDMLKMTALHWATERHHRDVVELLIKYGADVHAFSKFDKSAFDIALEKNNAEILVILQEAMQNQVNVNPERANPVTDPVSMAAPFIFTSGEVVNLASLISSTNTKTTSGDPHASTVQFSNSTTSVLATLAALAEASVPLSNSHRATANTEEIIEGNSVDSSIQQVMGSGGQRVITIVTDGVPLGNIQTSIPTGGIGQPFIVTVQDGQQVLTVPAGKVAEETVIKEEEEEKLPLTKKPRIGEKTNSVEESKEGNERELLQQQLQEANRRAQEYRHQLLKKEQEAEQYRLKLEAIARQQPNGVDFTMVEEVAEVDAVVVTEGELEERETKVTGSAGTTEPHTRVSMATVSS
How it was run: as §1

Nc1ncnc2c1ncn2[C@@H]1O[C@H](COP(=O)(O)OP(=O)(O)OP(=O)(O)O)[C@@H](O)[C@H]1O [adenosine triphosphate]
NP40-soluble protein abundance (CDKAL1; concentration: 1mM): 1.01 ± 0.042 | NP40-soluble protein abundance (CDKAL1; concentration: 2mM): 0.995 ± 0.024 | NP40-soluble protein abundance (CDKAL1; concentration: 4mM): 0.975 ± 0.018 | NP40-soluble protein abundance (CDKAL1; concentration: 6mM): 0.982 ± 0.025 | NP40-soluble protein abundance (CDKAL1; concentration: 8mM): 0.999 ± 0.029 | NP40-soluble protein abundance (CDKAL1; concentration: 10mM): 0.9904 ± 0.0045 | NP40-soluble protein abundance (DDX59; concentration: 1mM): 1.01 ± 0.056 | NP40-soluble protein abundance (DDX59; concentration: 2mM): 0.999 ± 0.031 | NP40-soluble protein abundance (DDX59; concentration: 4mM): 1 ± 0.037 | NP40-soluble protein abundance (DDX59; concentration: 6mM): 0.966 ± 0.066 | NP40-soluble protein abundance (DDX59; concentration: 8mM): 0.978 ± 0.047 | NP40-soluble protein abundance (DDX59; concentration: 10mM): 0.982 ± 0.022 | NP40-soluble protein abundance (PRPF38B; concentration: 1mM): 1.21 ± 0.072 | NP40-soluble protein abundance (PRPF38B; concentration: 2mM): 1.25 ± 0.096 | NP40-soluble protein abundance (PRPF38B; concentration: 4mM): 1.31 ± 0.051 | NP40-soluble protein abundance (PRPF38B; concentration: 6mM): 1.48 ± 0.09 | NP40-soluble protein abundance (PRPF38B; concentration: 8mM): 1.44 ± 0.084 | NP40-soluble protein abundance (PRPF38B; concentration: 10mM): 1.52 ± 0.14 | NP40-soluble protein abundance ([1]; concentration: 1mM): 0.978 ± 0.13 | NP40-soluble protein abundance ([1]; concentration: 2mM): 0.967 ± 0.059 | NP40-soluble protein abundance ([1]; concentration: 4mM): 1.02 ± 0.019 | NP40-soluble protein abundance ([1]; concentration: 6mM): 0.961 ± 0.047 | NP40-soluble protein abundance ([1]; concentration: 8mM): 0.937 ± 0.067 | NP40-soluble protein abundance ([1]; concentration: 10mM): 0.931 ± 0.036
